From PubChem BioAssay AID2517 (National Center for Advancing Translational Sciences (NCATS), 2010)
Out of some 350,000 compounds screened, about 1,200 (0.34%) were called active. This list was built around the results that the source calls inconclusive (neither active nor inactive); the mix of calls is not that of the screen. Calls follow the shape of the dose curve; as a rule, active = well fitted inhibition curve with a large enough effect; inconclusive = small, poorly fitted or top-dose-only effect; inactive = no such curve, though single readings can be large or run the other way. A potency beside an inconclusive call is a rough fit, not a confirmed value.
Also: nearly all actives have a fitted effect of over 55% in size.
Potency is read from the fitted curve at half-maximal effect.

Chains of the proteins cited; added tags and fusions are not shown.
UniProt P27695, whole entry, looked up: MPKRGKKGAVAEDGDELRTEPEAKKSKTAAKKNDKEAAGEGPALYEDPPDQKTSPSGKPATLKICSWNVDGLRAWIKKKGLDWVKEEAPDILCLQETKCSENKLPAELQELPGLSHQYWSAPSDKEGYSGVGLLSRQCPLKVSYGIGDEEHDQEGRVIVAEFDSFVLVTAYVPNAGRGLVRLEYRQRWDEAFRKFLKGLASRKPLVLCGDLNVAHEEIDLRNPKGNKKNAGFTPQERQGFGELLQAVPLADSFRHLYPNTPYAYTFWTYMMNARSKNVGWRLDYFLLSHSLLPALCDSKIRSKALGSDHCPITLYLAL

What follows are molecules tested against DNA repair nuclease/redox regulator APEX1 (Homo sapiens) (UniProt P27695) (assay: qHTS Assay for Inhibitors of the Human Apurinic/apyrimidinic Endonuclease 1 (APE1)). Conditions: recombinant APE1, TAMRA/BHQ-2 abasic DNA cleavage fluorescence; series mostly up to 65.8 µM.
Summary of the method: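 Endonuclease cleavage of a quenched abasic-site DNA duplex (50 nM) by APE1 (0.75 nM) was tracked by TAMRA dequenching. Compounds were preincubated with enzyme 15 min at room temperature; data normalized to buffer-only and DMSO wells plus NSC13755 control.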
For `COc1ccccc1/C=N/OC(=O)c1ccc(F)cc1`, the Potency was inconclusive: 1.12 µM [inhibitor, full curve]. With `CCNc1nc(NCC)nc(Oc2ccc(N)cc2)n1` the Potency was inconclusive: 44.7 µM [inhibitor, single point]. `COC1CCN(Cc2c(C(=O)N3CCc4ccccc4C3)nc3ccc(Cl)cn23)CC1` was tested, and the Potency was “inactive”. With `COc1cc(/C=C/C(=O)OCC(=O)N2CCN(S(=O)(=O)c3ccc(C)cc3C)CC2)ccc1O` the Potency was inconclusive: 31.6 µM [inhibitor, partial curve]. For `CO[C@H]1C[C@H](O[C@@H]2/C(C)=C/C[C@@H]3C[C@@H](C[C@]4(CC[C@H](C)[C@@H](C5CCCCC5)O4)O3)OC(=O)[C@@H]3C=C(C)/C(=N/O)[C@H]4OC/C(=C\C=C\[C@@H]2C)[C@]43O)O[C@@H](C)[C@@H]1O`, the Potency was “inactive”. With `COC(=O)[C@@]1(Cc2ccc(OC)cc2)[C@H]2c3cc(C(=O)N(C)C)[nH]c3C[C@H]2CN1C(=O)c1ccccc1` the Potency was inconclusive: 2.51 µM [inhibitor, single point]. With `Cc1nc2sccn2c(=O)c1CCN1CCC(=C(c2ccc(F)cc2)c2ccc(F)cc2)CC1` the Potency was inconclusive: 44.7 µM [inhibitor, single point]. For `Cc1cc(C(=O)NC2CCCC2)on1`, the Potency was inconclusive: 0.0045 µM [inhibitor, full curve, poor fit]. For `CCOC(=O)c1cnn(-c2ccc(NS(=O)(=O)c3ccc(Cl)cc3)cc2)c1C(F)(F)F`, the Potency was inconclusive: 3.55 µM [inhibitor, full curve, poor fit]. In the case of `CNC(=O)Nc1ccccc1C(=O)Nc1ccccc1`, the Potency is reported as inconclusive: 17.8 µM [inhibitor, single point]. `Cc1c(CCC(=O)O)c(=O)oc2c(C)c3occ(-c4ccc(Br)cc4)c3cc12` was tested, and the Potency was inconclusive: 15 µM [inhibitor, partial curve]. `O=C(COC(=O)/C=C/c1ccco1)Nc1cc(S(=O)(=O)N2CCOCC2)ccc1Cl` was tested, and the Potency was inconclusive: 5.32 µM [inhibitor, single point]. For `COCCn1c(SCc2cc(=O)n3ccsc3n2)nnc1-c1ccncc1`, the Potency was “inactive”. `c1ccc2[nH]c(NCCCc3cnc[nH]3)nc2c1` was tested, and the Potency was “inactive”. `CCCOc1ccc(C(=O)N2CC3(CC(c4cccc(NC(=O)[C@@H]5CCC(=O)N5)c4)=NO3)C[C@H]2C(=O)NC2(C(N)=O)CC2)cc1` (stereo partly drawn) was tested, and the Potency was inconclusive: 31.6 µM [inhibitor, partial curve]. For `CC(=O)c1ccc(NC(=O)C(C)n2nc(-c3ccccc3)c3cc(Cl)ccc32)cc1` (stereo not drawn), the Potency was inconclusive: 3.55 µM [inhibitor, single point]. `O=C(OC1CCCCC1)c1ccc2c(c1)C1C=CCC1C(C(=O)O)N2` (stereo not drawn) was tested, and the Potency was inconclusive: 3.16 µM [inhibitor, full curve]. For `COc1ccc(OC)c(NC(=O)C2C3C=CC(C3)C2C(=O)NCc2ccccn2)c1` (stereo not drawn), the Potency was inconclusive: 39.8 µM [inhibitor, single point]. For `COc1ccc(-c2cc(C(=O)NCCCn3ccnc3)no2)cc1`, the Potency was inconclusive: 15.8 µM [inhibitor, partial curve]. In the case of `Cc1ccc(S(=O)(=O)CCC(=O)OCn2nnc3ccccc3c2=O)cc1`, the Potency is reported as inconclusive: 0.0794 µM [inhibitor, full curve, poor fit]. `CN(C)C1C(=O)C(C(N)=O)C(=O)C2(O)C(=O)C3C(=O)c4c(O)ccc(Cl)c4C(O)C3CC12` (stereo not drawn) was tested, and the Potency was inconclusive: 28.2 µM [inhibitor, partial curve]. For `COc1ccccc1C(=O)Nc1ccc2c(c1)nc(CCNC(C)=O)n2C`, the Potency was inconclusive: 3.55 µM [inhibitor, single point]. `COc1cccc(NC(=O)CN(C)C(=O)c2cc(-c3ccco3)nc3ccccc23)c1` was tested, and the Potency was active: 10.6 µM. `COc1ccc(/C=C/c2ccncc2)c2ccccc12` was tested, and the Potency was “inactive”. For `CC(C)(C)c1ccc(OC(=O)c2cccnc2)cc1`, the Potency was inconclusive: 3.98 µM [inhibitor, partial curve]. With `O=c1[nH]c2cc3c(cc2cc1CN(Cc1cccnc1)Cc1nnnn1Cc1ccco1)OCCO3` the Potency was inconclusive: 31.6 µM [inhibitor, single point]. With `COc1cc(CC(=O)OCC(=O)Nc2ccc3c(c2)OCO3)cc(OC)c1OC` the Potency was inconclusive: 10 µM [inhibitor, single point]. In the case of `CCCCc1nc2ccccc2c(=O)n1NC(=O)c1c(O)c2c(n(CC(C)C)c1=O)CCCC2`, the Potency is reported as “inactive”. For `Cc1ccccc1CNC(=O)C1CCC(=O)N(C2CCCCCC2)C1` (stereo not drawn), the Potency was “inactive”. `COc1ccc(-n2nc3c(c2NC(=O)c2ccc(N4C(=O)CCC4=O)cc2)CSC3)cc1` was tested, and the Potency was inconclusive: 6.31 µM [inhibitor, partial curve, poor fit]. `C[C@H]1[C@H](C)CC[C@]2(C)CC[C@]3(C)C(=CC[C@@H]4[C@@]5(C)CC[C@@H](O)[C@](C)(C(=O)O)[C@@H]5CC[C@]43C)[C@H]12` was tested, and the Potency was inconclusive: 39.8 µM [inhibitor, single point]. For `CCOC(=O)c1ccccc1NC(=O)COC(=O)CC1CCCCC1`, the Potency was “inactive”. With `CC1(C)CC(=O)C2=C(C1)c1c(ccc3ccccc13)NC2c1ccco1` (stereo not drawn) the Potency was inconclusive: 28.2 µM [inhibitor, partial curve]. With `C=CC[n+]1c(/C=C2\C=Cc3cc(C)ccc3N2CC)ccc2ccccc21` the Potency was “inactive”. For `C=CCc1ccc(OCC(O)COc2ccc(CC=C)cc2OC)c(OC)c1`, the Potency was inconclusive: 31.6 µM [inhibitor, partial curve]. With `COCCNC(=O)c1cc2c(-c3ccc(Cl)cc3)nn(C)c2s1` the Potency was inconclusive: 17.8 µM [inhibitor, partial curve]. In the case of `O=C(Nc1nnc(C2CC2)s1)C1CC(=O)N(c2ccc3c(c2)OCCO3)C1` (stereo not drawn), the Potency is reported as inconclusive: 35.5 µM [inhibitor, single point]. In the case of `CSc1nc2ccc3nc(NC(=O)C4COc5ccccc5O4)sc3c2s1` (stereo not drawn), the Potency is reported as inconclusive: 35.5 µM [inhibitor, single point]. In the case of `CC(C)CNC(=O)CCCc1c[nH]c2ccccc12`, the Potency is reported as “inactive”. In the case of `Cc1ccc2cc(C#N)c(SCC(=O)NCc3ccco3)nc2c1`, the Potency is reported as inconclusive: 39.8 µM [inhibitor, single point]. In the case of `Cc1nc(NC2=NCN(CCCN3CCOCC3)CN2)nc2c(C)cccc12`, the Potency is reported as “inactive”. In the case of `CCC(=O)N1CCc2cc(Br)cc(S(=O)(=O)CCC(=O)N(C)c3cccc(C)c3)c21`, the Potency is reported as “inactive”. `O=C(COC(=O)c1ccc(OC(F)(F)F)cc1)Nc1ncccn1` was tested, and the Potency was inconclusive: 21.2 µM [inhibitor, partial curve]. In the case of `FC(F)(F)c1ccc(Cl)c(NC(=S)N/N=C/c2ccccc2C(F)(F)F)c1`, the Potency is reported as inconclusive: 5.01 µM [inhibitor, partial curve]. For `O=C(Nc1nnc(-c2cccs2)o1)c1cc(-c2ccccc2)nc2ccccc12`, the Potency was inconclusive: 4.47 µM [inhibitor, full curve, poor fit]. In the case of `CCCCCCN(C(=O)CCCCCN1C(=O)NC(c2ccc(-c3ccccc3)cc2)C(C(=O)OCc2ccccc2)=C1C)C(C(=O)NCCCC)c1ccc(OCC(=O)OC)cc1` (stereo not drawn), the Potency is reported as inconclusive: 35.5 µM [inhibitor, single point]. `CSCCC1C(C#N)=C(N)Oc2n[nH]c(-c3cccs3)c21` (stereo not drawn) was tested, and the Potency was “inactive”. In the case of `C=C1[C@@H]2CC[C@@H](C2)C1(C)C`, the Potency is reported as “inactive”. For `COc1ccc(C[C@@H]2CN3C(=NC[C@@H]3C)N2C[C@H](C)NC(=O)c2ccc(C)c(Br)c2)cc1`, the Potency was inconclusive: 3.55 µM [inhibitor, full curve, poor fit]. In the case of `O=c1cc2ncc(-n3cc([N+](=O)[O-])cn3)cn2[nH]1`, the Potency is reported as inconclusive: 7.08 µM [inhibitor, partial curve, poor fit]. With `CC(=O)Nc1ccc(NC(=O)c2cccc(-c3cc4ccccc4oc3=O)c2)cc1` the Potency was “inactive”. In the case of `COc1ccc(-c2oc3cc(OC)ccc3c2C(=O)c2ccc(C#N)cc2)cc1`, the Potency is reported as “inactive”. With `COc1cccc(/C=C/C(=O)OCC(=O)Nc2cccc(S(=O)(=O)N3CCCCC3)c2)c1OC` the Potency was inconclusive: 8.91 µM [inhibitor, single point]. For `Cc1ccc(S(=O)(=O)N2CCCC(C(=O)NCC(C)C)C2)cc1` (stereo not drawn), the Potency was inconclusive: 31.6 µM [inhibitor, single point]. For `Cn1cc(S(=O)(=O)N2CCC(C(N)=O)CC2)c(=O)n(C)c1=O`, the Potency was inconclusive: 44.7 µM [inhibitor, single point]. For `CNC(=S)NNS(=O)(=O)c1ccc(OC)cc1OC`, the Potency was inconclusive: 28.2 µM [inhibitor, single point]. With `CC(C)(C)C(=O)NC1(C(F)(F)F)NC(=O)N(c2ccc(F)cc2)C1=O` (stereo not drawn) the Potency was inconclusive: 1 µM [inhibitor, full curve, poor fit]. In the case of `COc1cccc(C(=O)NCC(=O)N/N=C/c2cn[nH]c2-c2ccccc2)c1`, the Potency is reported as inconclusive: 0.0071 µM [inhibitor, full curve, poor fit]. In the case of `Cc1cccc(/N=C/c2c(O)c3ccccc3oc2=O)n1`, the Potency is reported as inconclusive: 44.7 µM [inhibitor, single point]. `COc1cc(NC(=O)c2noc3c2CCC3)c(OC)cc1Cl` was tested, and the Potency was inconclusive: 39.8 µM [inhibitor, single point]. With `Cn1cnc(S(=O)(=O)Nc2ccc(OC(F)F)cc2)c1` the Potency was inconclusive: 7.94 µM [inhibitor, single point]. In the case of `O=C(COC(=O)c1ccc(Cl)nc1)Nc1ccccc1OC(F)F`, the Potency is reported as inconclusive: 0.0316 µM [inhibitor, full curve, poor fit]. For `COC(=O)c1ccc(NC(=O)CSC2=Nc3ccccc3C3CC=NN23)cc1` (stereo not drawn), the Potency was “inactive”.
